In all, about 1,600 compounds were measured (“Hit score”: median about 0.13, highest 2% from about 0.46 on). The list shows a part of the results.
Each molecule was assayed on SARS-CoV-2 (assay: Antiviral activity against SARS-CoV-2 (USA-WA1/2020 strain) measured by imaging in HRCE cells at MOI 0.4 after 96 hrs (reported as hit score from 0-1 for on-disease vs off-disease activity: scores >0.6 considered hits)).
Format: functional, Homo sapiens

Structure (SMILES) | Hit score
CCN1CCCC1CNC(=O)c1cc(S(=O)(=O)CC)c(N)cc1OC (stereo not drawn) [AMISULPRIDE] | 0.2622
CC[C@@H](C(=O)[C@@H](C)[C@@H](O)[C@H](C)CCc1ccc(C)c(O)c1C(=O)O)[C@H]1O[C@](CC)([C@H]2CC[C@](O)(CC)[C@H](C)O2)C[C@@H]1C [LASALOCID] | 0.1351
COc1cc(N)c(Cl)cc1C(=O)NC1CCN(Cc2ccccc2)CC1 [CLEBOPRIDE] | 0.01312
CCCCOc1ccc(OCCCN2CCOCC2)cc1 [PRAMOXINE] | 0.1511
CCCC[C@H](C)C[C@H](O)/C=C/[C@H]1[C@H](O)CC(=O)[C@@H]1CCCC/C=C/C(=O)O [LIMAPROST] | 0.08234
CC1CCc2cc(F)cc3c(=O)c(C(=O)O)cn1c23 (stereo not drawn) [FLUMEQUINE] | 0.08092
C[C@@H](CO)NC(=O)[C@@H]1C=C2c3cccc4[nH]cc(c34)C[C@H]2N(C)C1 [ERGONOVINE] | 0.1101
CC(C)c1nc(CN(C)C(=O)N[C@H](C(=O)N[C@@H](Cc2ccccc2)C[C@H](O)[C@H](Cc2ccccc2)NC(=O)OCc2cncs2)C(C)C)cs1 [RITONAVIR] | 0.04574
COc1ccccc1OCCNCC(O)COc1cccc2[nH]c3ccccc3c12 (stereo not drawn) [CARVEDILOL] | 0.5244
COc1ccc(-n2nc(C(N)=O)c3c2C(=O)N(c2ccc(N4CCCCC4=O)cc2)CC3)cc1 [APIXABAN] | 0.2748
CC(=O)[C@@]1(O)CC[C@H]2[C@@H]3CCC4=CC(=O)CC[C@]4(C)[C@H]3CC[C@@]21C [HYDROXYPROGESTERONE] | 0.0576
CC(=O)O[C@H]1Cc2ccccc2N(C(N)=O)c2ccccc21 [ESLICARBAZEPINE ACETATE] | 0.123
COC(=O)Nc1nc2cc(C(=O)c3ccc(F)cc3)ccc2[nH]1 [FLUBENDAZOLE] | 0.2556
CC[N+]1(C)CCCC(OC(=O)C(O)(c2ccccc2)c2ccccc2)C1 (stereo not drawn) [PIPENZOLATE] | 0.1116
CO/N=C(\C(=O)N[C@@H]1C(=O)N2C(C(=O)[O-])=C(C[N+]3(C)CCCC3)CS[C@H]12)c1csc(N)n1 | 0.1073
CCN1CCN(c2cc(-c3ccc(F)cc3)c3c(n2)CCCCCC3)CC1 [BLONANSERIN] | 0.05184
CC(C)(C)NCC(O)c1ccc(O)c(CO)c1 (stereo not drawn) [ALBUTEROL] | -0.2997
CC1(C)O[C@@H]2C[C@H]3[C@@H]4C[C@H](F)C5=CC(=O)CC[C@]5(C)[C@H]4[C@@H](O)C[C@]3(C)[C@]2(C(=O)CO)O1 [FLURANDRENOLIDE] | 0.03434

Exported field by field: 2 of the compounds above
CC(=O)O[C@H]1Cc2ccccc2N(C(N)=O)c2ccccc21 [ESLICARBAZEPINE ACETATE]
  Hit score: 0.123
COC(=O)Nc1nc2cc(C(=O)c3ccc(F)cc3)ccc2[nH]1 [FLUBENDAZOLE]
  Hit score: 0.2556
